From patent publication US10023708B2, “Method of producing a delivery device” (PTT HOLDING APS, priority 2011, dated 2018)

Assay: Loading of Ceragenin CSA-13 into IPN discs and its release
Conditions: IPN discs about 20% PHEMA; EtOH + CO2, about 300 bars, about 75° C., 21 hours 50 minutes
Method: 6 IPN discs (010 mm, thickness 1-2 mm) obtained from Example 1 and with about 20% PHEMA (total mass about 1.3266 g) was loaded with about 500 mg Ceragenin CSA-13. The loading solvent was 2.00 ml 99.8% EtOH supplied by Merck (Germany) and N48 CO2 (supplied by Air Liquid Denmark A/S (Denmark)). The Ceragenin CSA-13 was initially dissolved in the 2.00 ml 99.8% EtOH and injected into a reactor of 16 ml comprising the discs. The pressure was raised to about 300 bars by injecting CO2 and the temperature was raised to about 75° C. The discs were treated at this pressure and temperature under stirring (1100 rpm) for 21 hours and 50 minutes, where after the pressure was reduced, the discs were withdrawn and allowed to cool down.

CCCCCCCCNCCC[C@@H](C)[C@H]1CC[C@H]2[C@@H]3[C@H](OCCCN)C[C@@H]4C[C@H](OCCCN)CC[C@]4(C)[C@H]3C[C@H](OCCCN)[C@]12C [Ceragenin CSA-13]
amount loaded into the discs: a large amount
